In PubChem BioAssay AID248 (DTP/NCI, 2004):
The list does not hold the whole screen: it gathers some chemical classes. Not every dose and run of a compound is shown. T/C is the treated group as % of the vehicle group. Where survival is the endpoint, this PubChem deposit counts one and a half times the control or more as active, and values a quarter to a half above the control carry no call in these data; other NCI protocols may use other cut-offs. Some T/C values are marked as having no survivor count here; that says nothing about deaths at the dose. Schedules are NCI's codes, read here as Q, the interval in days (D) or hours (H), X, the number of doses. Some doses were run more than once; the results are listed from low to high. Brackets with × count equal records among those shown. Some schedule codes hold Z or #, which are not explained here.

Test system: L1210 leukemia ip in BDF1 mice, survival T/C
Assay: NCI In Vivo Anticancer Drug Screen. Data for tumor model L1210 Leukemia (intraperitoneal) in B6D2F1 (BDF1) mice
Settings: T/C endpoint: mean survival time, higher T/C = longer survival

SMILES: NC1CCCCC1.NP(=O)(O)N(CCCl)CCCl
- T/C (dose: 0.63 mg/kg/injection, schedule: Q03HX008 (ip), vehicle: saline): 108 % of control [survivor count not shown]
- T/C (dose: 0.63 mg/kg/injection, schedule: Q03HX024 (ip), vehicle: saline): 126 % of control [survivor count not shown]
- T/C (dose: 1.25 mg/kg/injection, schedule: Q03HX008 (ip), vehicle: saline): 132 % of control [survivor count not shown]
- T/C (dose: 1.25 mg/kg/injection, schedule: Q03HX024 (ip), vehicle: saline): 144 % of control [survivor count not shown]
- T/C (dose: 1.56 mg/kg/injection, schedule: Q## X040 (ip), vehicle: saline): 100 % of control [survivor count not shown]
- T/C (dose: 2.5 mg/kg/injection, schedule: Q03HX008 (ip), vehicle: saline): 179 % of control [survivor count not shown]
- T/C (dose: 2.5 mg/kg/injection, schedule: Q03HX024 (ip), vehicle: saline): 143 % of control [survivor count not shown]
- T/C (dose: 3.12 mg/kg/injection, schedule: Q## X040 (ip), vehicle: saline): 105 % of control [survivor count not shown]
- T/C (dose: 5.0 mg/kg/injection, schedule: Q01DX Z (ip), vehicle: clinical formulation): 125 % of control [survivor count not shown]
- T/C (dose: 5.0 mg/kg/injection, schedule: Q01DX Z (ip), vehicle: water): 119 % of control [survivor count not shown]
- T/C (dose: 6.25 mg/kg/injection, schedule: Q01DX009 (ip), vehicle: water): 113 % of control [survivor count not shown]
- T/C (dose: 6.25 mg/kg/injection, schedule: Q03HX008 (ip), vehicle: saline): 113 % of control [survivor count not shown]
- T/C (dose: 6.25 mg/kg/injection, schedule: Q03HX024 (ip), vehicle: saline): 121 % of control [survivor count not shown]
- T/C (dose: 6.25 mg/kg/injection, schedule: Q## X040 (ip), vehicle: saline): 125 % of control [survivor count not shown]
- T/C (dose: 6.25 mg/kg/injection, schedule: Q#A X034 (ip), vehicle: saline): 117 % of control [survivor count not shown]
- T/C (dose: 10.0 mg/kg/injection, schedule: Q01DX005 (ip), vehicle: saline): 111 % of control [survivor count not shown]
- T/C (dose: 10.0 mg/kg/injection, schedule: Q01DX009 (ip), vehicle: saline): 130 % of control [survivor count not shown]
- T/C (dose: 10.0 mg/kg/injection, schedule: Q01DX009 (sc), vehicle: saline): 97 % of control [survivor count not shown]
- T/C (dose: 10.0 mg/kg/injection, schedule: Q01DX Z (ip), vehicle: clinical formulation): 152 % of control [survivor count not shown]
- T/C (dose: 10.0 mg/kg/injection, schedule: Q01DX Z (ip), vehicle: water): 133 % of control [survivor count not shown]
- T/C (dose: 12.5 mg/kg/injection, schedule: Q01DX005 (ip), vehicle: saline): 109 % of control [survivor count not shown]
- T/C (dose: 12.5 mg/kg/injection, schedule: Q01DX009 (ip), vehicle: saline): 119 % of control [survivor count not shown]
- T/C (dose: 12.5 mg/kg/injection, schedule: Q01DX009 (ip), vehicle: water): 123 % of control [survivor count not shown]
- T/C (dose: 12.5 mg/kg/injection, schedule: Q01DX017 (ip), vehicle: saline): 119 % of control [survivor count not shown]
- T/C (dose: 12.5 mg/kg/injection, schedule: Q03HX008 (ip), vehicle: saline): 149 % of control [survivor count not shown]
- T/C (dose: 12.5 mg/kg/injection, schedule: Q03HX024 (ip), vehicle: saline): 147 % of control [survivor count not shown]
- T/C (dose: 12.5 mg/kg/injection, schedule: Q#A X034 (ip), vehicle: saline): 133 % of control [survivor count not shown]
- T/C (dose: 18.0 mg/kg/injection, schedule: Q01DX009 (ip), vehicle: saline): 146 % of control [survivor count not shown]
- T/C (dose: 20.0 mg/kg/injection, schedule: Q01DX005 (ip), vehicle: saline): 141 % of control [survivor count not shown]
- T/C (dose: 20.0 mg/kg/injection, schedule: Q01DX009 (ip), vehicle: saline): 156 % of control [survivor count not shown]
- T/C (dose: 20.0 mg/kg/injection, schedule: Q01DX009 (sc), vehicle: saline): 98 % of control [survivor count not shown]
- T/C (dose: 20.0 mg/kg/injection, schedule: Q01DX Z (ip), vehicle: clinical formulation): 182 % of control [survivor count not shown]
- T/C (dose: 20.0 mg/kg/injection, schedule: Q01DX Z (ip), vehicle: water): 151 % of control [survivor count not shown]
- T/C (dose: 24.0 mg/kg/injection, schedule: Q04DX003 (ip), vehicle: clinical formulation): 155 % of control [survivor count not shown]
- T/C (dose: 24.0 mg/kg/injection, schedule: Q04DX003 (ip), vehicle: water): 144 % of control [survivor count not shown]
- T/C (dose: 25.0 mg/kg/injection, schedule: Q01DX001 (ip), vehicle: water): 136 % of control [survivor count not shown]
- T/C (dose: 25.0 mg/kg/injection, schedule: Q01DX005 (ip), vehicle: saline): 138 % of control [survivor count not shown]
- T/C (dose: 25.0 mg/kg/injection, schedule: Q01DX009 (ip), vehicle: saline): 107 % of control [survivor count not shown]
- T/C (dose: 25.0 mg/kg/injection, schedule: Q01DX009 (ip), vehicle: water): 151 % of control [survivor count not shown]
- T/C (dose: 25.0 mg/kg/injection, schedule: Q01DX017 (ip), vehicle: saline): 135 % of control [survivor count not shown]
- T/C (dose: 25.0 mg/kg/injection, schedule: Q02DX005 (ip), vehicle: saline): 112 % of control [survivor count not shown]
- T/C (dose: 25.0 mg/kg/injection, schedule: Q02DX009 (ip), vehicle: saline): 125 [survivor count not shown] and 151 % of control [survivor count not shown]
- T/C (dose: 25.0 mg/kg/injection, schedule: Q03HX008 (ip), vehicle: saline): 164 % of control [survivor count not shown]
- T/C (dose: 25.0 mg/kg/injection, schedule: Q03HX024 (ip), vehicle: saline): 234 % of control [survivor count not shown]
- T/C (dose: 25.0 mg/kg/injection, schedule: Q04DX003 (ip), vehicle: water): 121 % of control [survivor count not shown]
- T/C (dose: 25.0 mg/kg/injection, schedule: Q#A X034 (ip), vehicle: saline): 207 % of control [survivor count not shown]
- T/C (dose: 27.0 mg/kg/injection, schedule: Q01DX009 (ip), vehicle: saline): 160 % of control [survivor count not shown]
- T/C (dose: 27.0 mg/kg/injection, schedule: Q08DX002 (ip), vehicle: water): 140 [survivor count not shown] and 142 % of control [survivor count not shown]
- T/C (dose: 36.0 mg/kg/injection, schedule: Q04DX003 (ip), vehicle: clinical formulation): 160 % of control [survivor count not shown]
- T/C (dose: 36.0 mg/kg/injection, schedule: Q04DX003 (ip), vehicle: water): 168 % of control [survivor count not shown]
- T/C (dose: 40.0 mg/kg/injection, schedule: Q01DX001 (ip), vehicle: saline): 146 % of control [survivor count not shown]
- T/C (dose: 40.0 mg/kg/injection, schedule: Q01DX001 (sc), vehicle: saline): 100 % of control [survivor count not shown]
- T/C (dose: 40.0 mg/kg/injection, schedule: Q01DX005 (ip), vehicle: saline): 208 % of control [survivor count not shown]
- T/C (dose: 40.0 mg/kg/injection, schedule: Q01DX009 (ip), vehicle: saline): 216 [survivor count not shown] and 221 % of control [survivor count not shown]
- T/C (dose: 40.0 mg/kg/injection, schedule: Q01DX009 (oral), vehicle: saline): 100 % of control [survivor count not shown]
- T/C (dose: 40.0 mg/kg/injection, schedule: Q01DX009 (sc), vehicle: saline): 119 % of control [survivor count not shown]
- T/C (dose: 40.0 mg/kg/injection, schedule: Q01DX Z (ip), vehicle: clinical formulation): 244 % of control [survivor count not shown]
- T/C (dose: 40.0 mg/kg/injection, schedule: Q04DX003 (ip), vehicle: saline): 162 % of control [survivor count not shown]
- T/C (dose: 40.0 mg/kg/injection, schedule: Q08DX002 (ip), vehicle: water): 134 [survivor count not shown] and 144 % of control [survivor count not shown]
- T/C (dose: 44.0 mg/kg/injection, schedule: Q01DX001 (ip), vehicle: saline): 148 % of control [survivor count not shown]
- T/C (dose: 50.0 mg/kg/injection, schedule: Q01DX001 (ip), vehicle: saline): 106 [survivor count not shown], 123 [survivor count not shown], 128 [survivor count not shown] (2×), 143 % of control [survivor count not shown] (2×)
- T/C (dose: 50.0 mg/kg/injection, schedule: Q01DX001 (ip), vehicle: water): 143 % of control [survivor count not shown]
- T/C (dose: 50.0 mg/kg/injection, schedule: Q01DX005 (ip), vehicle: saline): 265 % of control [survivor count not shown]
- T/C (dose: 50.0 mg/kg/injection, schedule: Q01DX009 (ip), vehicle: saline): 192 % of control [survivor count not shown]
- T/C (dose: 50.0 mg/kg/injection, schedule: Q01DX009 (ip), vehicle: water): 187 % of control [survivor count not shown]
- T/C (dose: 50.0 mg/kg/injection, schedule: Q01DX017 (ip), vehicle: saline): 209 % of control [survivor count not shown]
- T/C (dose: 50.0 mg/kg/injection, schedule: Q02DX005 (ip), vehicle: saline): 160 % of control [survivor count not shown]
- T/C (dose: 50.0 mg/kg/injection, schedule: Q02DX009 (ip), vehicle: saline): 139 [survivor count not shown] and 242 % of control [survivor count not shown]
